Drawing on paper PMC8199443, this text covers binding for one molecule.

These are yes or no findings as the source states them, for the method shown. For some of these results: A result given as binding can be weak or reduced; the word gives no strength. For some of these results: In cells and extracts the contact can be indirect.

The target of assay [1] is OpuABC-SS, OpuABC subunit of the ABC transporter OpuA with a C-terminal TwinStrepII-tag (Lactococcus lactis). Briefly: SEC; affinity-purified OpuA reconstituted in MSP1D1 nanodiscs (DOPE/DOPC/DOPG; OpuA/MSP1D1/lipid 1:20:2000 or 1:20:1000), Superdex 200 Increase 10/300 GL, 50 mM KPi pH 7.0, 200 mM KCl; peak fraction on SDS-PAGE; both purified. For orientation: Size exclusion chromatography separates by hydrodynamic size, large species first.

Assay [2] has as its target OpuABC-S, OpuABC subunit of the ABC transporter OpuA with a C-terminal StrepII-tag (Lactococcus lactis). The description is as above.
Assay [3] addresses OpuABC-H, OpuABC subunit of the ABC transporter OpuA with a C-terminal His6-tag (Lactococcus lactis). The description is as above.
The target of assay [4] is OpuABC-SS, OpuABC subunit of the ABC transporter OpuA with a C-terminal TwinStrepII-tag (Lactococcus lactis). Briefly: condition: only nanodisc reconstitution after two sequential affinity purifications in detergent; SEC; OpuA-HSS reconstituted in nanodiscs only after both affinity steps in detergent; SEC fractions on SDS-PAGE; both purified.
In assay [5] the target is OpuABC-H, OpuABC subunit of the ABC transporter OpuA with a C-terminal His6-tag (Lactococcus lactis). Described as above.
The target in assay [6] is OpuABC-SS, OpuABC subunit of the ABC transporter OpuA with a C-terminal TwinStrepII-tag (Lactococcus lactis). The assay can be described thus: pull-down; single tag affinity purification (Ni2+-Sepharose or Strep-tactin) of homodimeric OpuA from membrane vesicles solubilised with 0.5% DDM, 20% glycerol, 4 °C; fractions on Coomassie-stained SDS-PAGE.
In assay [7] the target is OpuABC-S, OpuABC subunit of the ABC transporter OpuA with a C-terminal StrepII-tag (Lactococcus lactis). The description is as above.
Assay [8] deals with OpuABC-H, OpuABC subunit of the ABC transporter OpuA with a C-terminal His6-tag (Lactococcus lactis). The assay is described as above.
The target in assay [9] is OpuABC-SS, OpuABC subunit of the ABC transporter OpuA with a C-terminal TwinStrepII-tag (Lactococcus lactis). The assay can be described thus: pull-down; Ni2+-Sepharose purification, reconstitution in MSP1D1 nanodiscs, SEC, then Strep-tactin purification of the nanodisc peak fraction (50 mM Tris-HCl pH 8.0, 150 mM NaCl, 4% glycerol); Coomassie-stained SDS-PAGE; both purified.

The target of assay [10] is OpuABC-H, OpuABC subunit of the ABC transporter OpuA with a C-terminal His6-tag (Lactococcus lactis). Described as above.

B1: OpuAA, nucleotide-binding subunit of the ABC transporter OpuA (protein, UniProt Q9KIF7 1-408)
chain: MPVKIKIEHLTKIFGKRIKTALTMVEKGEPKNEILKKTGATVGVYDTNFEINEGEIFVIMGLSGSGKSTLLRLLNRLIEPTSGKIFIDNQDVATLNKEDLLQVRRKTMSMVFQNFGLFPHRTILENTEYGLEVQNVPKEERRKRAEKALDNANLLDFKDQYPKQLSGGMQQRVGLARALANDPEILLMDEAFSALDPLIRREMQDELLELQAKFQKTIIFVSHDLNEALRIGDRIAIMKDGKIMQIGTGEEILTNPANDYVKTFVEDVDRAKVITAENIMIPALTTNIDVDGPSVALKKMKTEEVSSLMAVDKKRQFRGVVTSEQAIAARKNNQPLKDVMTTDVGTVSKEMLVRDILPIIYDAPTPLAVVDDNGFLKGVLIRGSVLEALADIPDEDEVEEIEKEEENK
Consider B1, for which the binding entry in assay [1] was “binds”; in [2], “binds”; in assay [3], “binds”; in assay [4] it was “no binding”; in [5], “no binding”; in assay [6], “binds”. The binding entry in assay [7], in assay [8], in assay [9] and in assay [10] was “binds” in each case.
